A short description of the series: Hydrazo-CEST MRI phantom imaging (3 T and 7 T) and in situ hydrazone formation. Particulars: 37° C., pH 7.4, 40 mM. The procedure: In the upper panel, a Phantom image and Z-spectra of hydrazine 2f and hydrazones 3f and 4f were acquired at the indicated field strength, 37° C., pH 7.4, and 40 mM concentration.
Values indicate the % MTRasym±the standard deviation of the off-resonance measurements once the system had reached steady state.
The kinetics of Hydrazo-CEST signal production through hydrazone formation were also evaluated in the MRI at 37° C. in 1×PBS at pH=7.4 (FIG. 28). Either PBS or a PBS solution of 2-formylbenzenesulfonic acid at a final concentration of 20 mM was injected into the imaging phantom, and Z-spectra were acquired every 4.5 min to monitor hydrazone formation.
A single saturation peak at 6.4 ppm was observed 4.5 min after aldehyde injection. […] This MRI data confirms that Hydrazo-CEST probes are rapidly activated by aldehydes under physiological conditions, and are readily detectable by 7 T MRI. Both hydrazine and hydrazone functionalities are utilized in medications broadly spanning indications from anti-infectives and anti-parasitics, to anti-cancer agents.

With `COc1ccc(NN=Cc2ccccc2S(=O)(=O)O)c(C(=O)O)c1` [Compound 3f], the “frequency offset from water” value came to 6.4 ppm.

Turning to `C/C=N/Nc1ccc(OC)cc1C(=O)O` [Compound 4f], the “frequency offset from water” value was 6.4 ppm.

The record behind these values is patent publication US11696960B2, “Methods and compounds for detection and binding of aldehydes” (UNIVERSITY OF OTTAWA, priority 2017, dated 2023).
